Reference: the supplement of paper PMC4604168 (melanoma cell lines)
This is one part of the list. Repeats are few or missing, and single values can be far off.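 Imaging used 1,536-well plates; nuclei positive for cleaved PARP by antibody were divided by total DNA-stained nuclei to yield the apoptosis fraction. Doses for screening kept most cells viable, and cell lines differ markedly in resting and induced cleaved-PARP levels.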

Tests used:
Experiment in all cases: cleaved PARP positive nuclei fraction relative to DMSO control; melanoma cells; higher = more apoptosis
Conditions in all cases: library dose: low library concentration; 72 h
501Mel = tested on: 501Mel
A101D = tested on: A101D
A2058 = tested on: A2058
A375 = tested on: A375
C32 = tested on: C32
CBRC008 = tested on: CBRC008 (line from a melanoma biopsy)
CBRC014 = tested on: CBRC014 (line from a melanoma biopsy)
CBRC016 = tested on: CBRC016 (line from a melanoma biopsy)
CBRC017 = tested on: CBRC017 (line from a melanoma biopsy)
CBRC034 = tested on: CBRC034 (line from a melanoma biopsy)
COLO792 = tested on: COLO792
COLO800 = tested on: COLO800
COLO829 = tested on: COLO829
G361 = tested on: G361
IPC-298 = tested on: IPC-298
IST-MEL1 = tested on: IST-MEL1
LB2518-MEL = tested on: LB2518-MEL
LOXIMVI = tested on: LOXIMVI
MEL-HO = tested on: MEL-HO

SMILES | cleaved PARP positive nuclei fraction (501Mel) [%] | cleaved PARP positive nuclei fraction (A101D) [%] | cleaved PARP positive nuclei fraction (A2058) [%] | cleaved PARP positive nuclei fraction (A375) [%] | cleaved PARP positive nuclei fraction (C32) [%] | cleaved PARP positive nuclei fraction (CBRC008) [%] | cleaved PARP positive nuclei fraction (CBRC014) [%] | cleaved PARP positive nuclei fraction (CBRC016) [%] | cleaved PARP positive nuclei fraction (CBRC017) [%] | cleaved PARP positive nuclei fraction (CBRC034) [%] | cleaved PARP positive nuclei fraction (COLO792) [%] | cleaved PARP positive nuclei fraction (COLO800) [%] | cleaved PARP positive nuclei fraction (COLO829) [%] | cleaved PARP positive nuclei fraction (G361) [%] | cleaved PARP positive nuclei fraction (IPC-298) [%] | cleaved PARP positive nuclei fraction (IST-MEL1) [%] | cleaved PARP positive nuclei fraction (LB2518-MEL) [%] | cleaved PARP positive nuclei fraction (LOXIMVI) [%] | cleaved PARP positive nuclei fraction (MEL-HO) [%]
N#CC[C@H](C1CCCC1)n1cc(-c2ncnc3[nH]ccc23)cn1 [ruxolitinib] + CS(=O)(=O)c1ccc(C(=O)Nc2ccc(Cl)c(-c3ccccn3)c2)c(Cl)c1 [vismodegib] (first compound 1 µM, partner dose 1 µM) | 113 | 127 | 96.1 | 112 | 121 | 164 | 99.4 | 23.2 | 94.5 | 103 | 84 | 81.1 | 119 | 58.8 | 43.4 | 188 | 77.1 | 218 | 69.7
Cc1ccc(Nc2nccc(N(C)c3ccc4c(C)n(C)nc4c3)n2)cc1S(N)(=O)=O [Pazopanib] + Cn1nnc2c(C(N)=O)ncn2c1=O [temozolomide] (first compound 0.4 µM, partner dose 2 µM) | 115 | 46 | 151 | 128 | 69.5 | 403 | 114 | 91.1 | 140 | 66.1 | 88.7 | 102 | 151 | 175 | 227 | 93.6 | 114 | 262 | 90
O=C(/C=C/c1cccnc1)NCCCCC1CCN(C(=O)c2ccccc2)CC1 + Cn1c(=O)n(-c2ccc(C(C)(C)C#N)cc2)c2c3cc(-c4cnc5ccccc5c4)ccc3ncc21 [NVP-BEZ235] (first compound 0.01 µM, partner dose 0.004 µM) | 77 | 173 | 152 | 54.5 | 75.3 | 1680 | 102 | 987 | 400 | 1590 | 355 | 354 | 169 | 4730 | 334 | 209 | 155 | 221 | 158
CC[C@]1(O)C[C@H]2CN(CCc3c([nH]c4ccccc34)[C@@](C(=O)OC)(c3cc4c(cc3OC)N(C=O)[C@H]3[C@@](O)(C(=O)OC)[C@H](OC(C)=O)[C@]5(CC)C=CCN6CC[C@]43[C@@H]65)C2)C1 [vincristine] + CC1(C)CCC(c2ccc(Cl)cc2)=C(CN2CCN(c3ccc(C(=O)NS(=O)(=O)c4ccc(N[C@H](CCN5CCOCC5)CSc5ccccc5)c(S(=O)(=O)C(F)(F)F)c4)cc3)CC2)C1 [ABT263] (first compound 0.0001 µM, partner dose 0.4 µM) | 83.4 | 222 | 103 | 316 | 707 | 421 | 235 | 322 | 289 | 137 | 278 | 212 | 107 | 102 | 53.5 | 183 | 155 | 143 | 73.9
O=C(/C=C/c1cccnc1)NCCCCC1CCN(C(=O)c2ccccc2)CC1 + CN(c1ncccc1CNc1nc(Nc2ccc3c(c2)CC(=O)N3)ncc1C(F)(F)F)S(C)(=O)=O [PF562271] (first compound 0.01 µM, partner dose 0.08 µM) | 160 | 200 | 87.1 | 161 | 78.6 | 3390 | 120 | 1010 | 1110 | 2310 | 428 | 370 | 293 | 4850 | 138 | 104 | 134 | 207 | 692
Cc1cc(Nc2cc(N3CCN(C)CC3)nc(Sc3ccc(NC(=O)C4CC4)cc3)n2)n[nH]1 [Tozasertib] + CNC(=O)c1cc(Oc2ccc(NC(=O)Nc3ccc(Cl)c(C(F)(F)F)c3)cc2)ccn1 [sorafenib] (first compound 0.006 µM, partner dose 0.4 µM) | 90.9 | 47.4 | 126 | 174 | 83.4 | 71.2 | 98.2 | 286 | 97.8 | 147 | 91.2 | 113 | 131 | 69.3 | 163 | 135 | 104 | 175 | 80.9
O=c1[nH]nc(Sc2ncc([N+](=O)[O-])s2)n1-c1ccc2c(c1)OCCO2 + COc1ccc(C2=N[C@@H](c3ccc(Cl)cc3)[C@@H](c3ccc(Cl)cc3)N2C(=O)N2CCNC(=O)C2)c(OC(C)C)c1 [Nutlin-3] (first compound 0.2 µM, partner dose 0.1 µM) | 103 | 201 | 136 | 135 | 79.3 | 48.7 | 109 | 129 | 135 | 31.9 | 152 | 64.4 | 74.7 | 62.5 | 84.4 | 61 | 25.3 | 42.6 | 75.3
O=C(Nc1cc(C(F)(F)F)cc(C(F)(F)F)c1)c1cc(Cl)ccc1O + Nc1nc(F)nc2c1ncn2[C@@H]1O[C@H](CO)[C@@H](O)[C@@H]1O [fludarabine] (first compound 0.016 µM, partner dose 0.2 µM) | 4170 | 57.6 | 133 | 1040 | 82.9 | 33.6 | 97.5 | 92.2 | 89.5 | 101 | 50.6 | 118 | 122 | 43.3 | 130 | 54.5 | 87.2 | 87 | 59.8
O=C(Nc1cc(C(F)(F)F)cc(C(F)(F)F)c1)c1cc(Cl)ccc1O + OCc1c[nH]c2ccccc12 [Indole-3-carbinol] (first compound 0.016 µM, partner dose 0.8 µM) | 109 | 67 | 227 | 334 | 89.2 | 134 | 78.4 | 92.3 | 110 | 70.3 | 61 | 173 | 102 | 73.9 | 94.8 | 145 | 93.7 | 105 | 50.8
O=C(Nc1cc(C(F)(F)F)cc(C(F)(F)F)c1)c1cc(Cl)ccc1O + Cc1nc(Nc2ncc(C(=O)Nc3c(C)cccc3Cl)s2)cc(N2CCN(CCO)CC2)n1 [dasatanib] (first compound 0.016 µM, partner dose 0.004 µM) | 80.3 | 115 | 118 | 250 | 51.1 | 33.9 | 117 | 54.9 | 84.8 | 51.9 | 76.4 | 79.5 | 132 | 135 | 88.3 | 20.9 | 101 | 25.6 | 67.6
N#CC[C@H](C1CCCC1)n1cc(-c2ncnc3[nH]ccc23)cn1 [ruxolitinib] + C[C@]1(O)C[C@@H](c2nc(-c3ccc4ccc(-c5ccccc5)nc4c3)c3c(N)nccn32)C1 [OSI906] (first compound 1 µM, partner dose 0.4 µM) | 59.9 | 157 | 118 | 408 | 82.6 | 139 | 97.8 | 115 | 126 | 30.9 | 101 | 64.4 | 27.8 | 52.1 | 45.3 | 41 | 51.9 | 112 | 115
O=c1[nH]nc(Sc2ncc([N+](=O)[O-])s2)n1-c1ccc2c(c1)OCCO2 + C[C@@H](N)c1ccc(C(=O)Nc2ccnc3[nH]ccc23)cc1 [RKI983] (first compound 0.2 µM, partner dose 0.4 µM) | 41.9 | 95.2 | 170 | 97.9 | 99.2 | 142 | 138 | 166 | 169 | 58.8 | 148 | 63.7 | 222 | 199 | 45.3 | 67 | 273 | 177 | 109
Cc1cn(-c2cc(NC(=O)c3ccc(C)c(Nc4nccc(-c5cccnc5)n4)c3)cc(C(F)(F)F)c2)cn1 [nilotinib] + C[C@]1(c2nc3c(C(N)=O)cccc3[nH]2)CCCN1 [Veliparib] (first compound 0.2 µM, partner dose 1.4 µM) | 184 | 90 | 158 | 254 | 76.2 | 42.2 | 78.2 | 83.6 | 74.6 | 51.1 | 74 | 91.4 | 90.3 | 45.7 | 89.4 | 126 | 60.4 | 161 | 102
Cc1cc(Nc2cc(N3CCN(C)CC3)nc(Sc3ccc(NC(=O)C4CC4)cc3)n2)n[nH]1 [Tozasertib] + CCCCCCCCc1ccc(CCC(N)(CO)CO)cc1 [fingolimod] (first compound 0.006 µM, partner dose 2 µM) | 108 | 99.6 | 68.9 | 183 | 82.3 | 90.1 | 78 | 72 | 119 | 61.4 | 43.4 | 124 | 149 | 82.5 | 147 | 62.3 | 60.3 | 74.1 | 71.1
CC[C@]1(O)C[C@H]2CN(CCc3c([nH]c4ccccc34)[C@@](C(=O)OC)(c3cc4c(cc3OC)N(C=O)[C@H]3[C@@](O)(C(=O)OC)[C@H](OC(C)=O)[C@]5(CC)C=CCN6CC[C@]43[C@@H]65)C2)C1 [vincristine] + O=C(O)c1ccc2c(c1)nc(Nc1cccc(Cl)c1)c1ccncc12 [CX4945] (first compound 0.0001 µM, partner dose 0.4 µM) | 51.4 | 287 | 189 | 200 | 89.4 | 155 | 143 | 228 | 138 | 34.9 | 73.3 | 120 | 134 | 102 | 148 | 124 | 252 | 101 | 65.5
O=C(/C=C/c1cccnc1)NCCCCC1CCN(C(=O)c2ccccc2)CC1 + Nc1ccn([C@@H]2O[C@H](CO)[C@@H](O)C2(F)F)c(=O)n1 [gemcitabine] (first compound 0.01 µM, partner dose 0.0004 µM) | 81.4 | 41.7 | 131 | 105 | 74.5 | 6350 | 133 | 2050 | 581 | 473 | 543 | 333 | 211 | 6440 | 286 | 109 | 613 | 16.3 | 65.6

An excerpt taken from the entries so far, for reference:
SMILES | cleaved PARP positive nuclei fraction (501Mel) [%] | cleaved PARP positive nuclei fraction (A101D) [%] | cleaved PARP positive nuclei fraction (A2058) [%] | cleaved PARP positive nuclei fraction (A375) [%] | cleaved PARP positive nuclei fraction (C32) [%] | cleaved PARP positive nuclei fraction (CBRC008) [%] | cleaved PARP positive nuclei fraction (CBRC014) [%] | cleaved PARP positive nuclei fraction (CBRC016) [%] | cleaved PARP positive nuclei fraction (CBRC017) [%] | cleaved PARP positive nuclei fraction (CBRC034) [%] | cleaved PARP positive nuclei fraction (COLO792) [%] | cleaved PARP positive nuclei fraction (COLO800) [%] | cleaved PARP positive nuclei fraction (COLO829) [%] | cleaved PARP positive nuclei fraction (G361) [%] | cleaved PARP positive nuclei fraction (IPC-298) [%] | cleaved PARP positive nuclei fraction (IST-MEL1) [%] | cleaved PARP positive nuclei fraction (LB2518-MEL) [%] | cleaved PARP positive nuclei fraction (LOXIMVI) [%] | cleaved PARP positive nuclei fraction (MEL-HO) [%]
CC[C@]1(O)C[C@H]2CN(CCc3c([nH]c4ccccc34)[C@@](C(=O)OC)(c3cc4c(cc3OC)N(C=O)[C@H]3[C@@](O)(C(=O)OC)[C@H](OC(C)=O)[C@]5(CC)C=CCN6CC[C@]43[C@@H]65)C2)C1 [vincristine] + O=C(O)c1ccc2c(c1)nc(Nc1cccc(Cl)c1)c1ccncc12 [CX4945] (first compound 0.0001 µM, partner dose 0.4 µM) | 51.4 | 287 | 189 | 200 | 89.4 | 155 | 143 | 228 | 138 | 34.9 | 73.3 | 120 | 134 | 102 | 148 | 124 | 252 | 101 | 65.5
O=C(/C=C/c1cccnc1)NCCCCC1CCN(C(=O)c2ccccc2)CC1 + Nc1ccn([C@@H]2O[C@H](CO)[C@@H](O)C2(F)F)c(=O)n1 [gemcitabine] (first compound 0.01 µM, partner dose 0.0004 µM) | 81.4 | 41.7 | 131 | 105 | 74.5 | 6350 | 133 | 2050 | 581 | 473 | 543 | 333 | 211 | 6440 | 286 | 109 | 613 | 16.3 | 65.6
